Experimental data as given in patent US20220403364A1, “BACTERIA IN 3D POROUS MEDIA” (The Trustees of Princeton University, priority 2019, published 2022).
At least one structure is not confirmed: it was looked up by name or label, or the drawing left a doubt.

Tested on: bacteria
Assay: bacterial growth in the 3D porous medium with antibiotic (light absorbance at 600 nm)
Type: cell-based
Details: 0.81% gel porous medium
Experimental: In some embodiments, changes in growth/motility due to changes in antibiotic or antibiotic concentrations can be quantified. […] Using an 0.81% gel with different concentrations of kanamycin ([…] (ref 504), 317.5 μg/ml (ref 503), 156.25 μg/ml (ref 502), and 78.125 μg/ml (ref 501)), it can be seen that for the two highest concentrations, there was no growth.
In both figures, different concentrations of ampicillin were tested 1 μg/ml (ref. 511, 521), 2 μg/ml (ref 512, 522), 3 μg/ml (ref 513, 523), 4 μg/ml (ref 514, 524) and 6 μg/ml (ref 515, 525). For FIG. 6B, the different concentrations were added to bacteria in liquid LB media with no shaking.
In FIGS. 6A-6C, the levels of bacteria were monitored by measuring light absorbance at 600 nm. In some embodiments, the cells or media is irradiated with light from a light source positioned above the cells, and a lens or sensor positioned below the cells then captures the light either being emitted from the cells (i.e., the intensity of light being emitted by a marker gene, etc.) or being transmitted through the cells (i.e., not being absorbed). A processor can then be used to quantify the measured light or sensor signals. Further a processor can also be used to convert the measured light or sensor signals into concentrations or bacterial cell counts, via, e.g., calibration curves. Based on that, various antibiotic performance characteristics can be determined—MIC, minimal bactericidal concentration (MBC), etc.

Q: Which results are given for `NC[C@H]1O[C@H](O[C@H]2[C@H](O)[C@@H](O[C@H]3O[C@H](CO)[C@@H](O)[C@H](N)[C@H]3O)[C@H](N)C[C@@H]2N)[C@H](O)[C@@H](O)[C@@H]1O` [kanamycin]?
A: bacterial growth (kanamycin 78.125 μg/ml, FIG. 6A ref 501): a relatively high amount of growth; bacterial growth (kanamycin 156.25 μg/ml, FIG. 6A ref 502): only a small amount of growth; bacterial growth (kanamycin 317.5 μg/ml, FIG. 6A ref 503): no growth; bacterial growth (kanamycin 675 μg/ml, FIG. 6A ref 504): no growth; bacterial growth (kanamycin concentrations less than 78.125 μg/ml): performed similarly to the 78.125 μg/ml concentration
